Measurements taken from patent US20070026059A1, “Ligands for orphan nuclear hormone receptor steroidogenic factor-1 (SF-1)” (priority 2005, published 2007).
No constants are given. Whether binding was seen depends on the method and setting. Some entries that bind do so weakly or less than the wild type.

The chains behind the UniProt entries cited, without tags or fusion partners. Residues count along the entry.
UniProt P45448, residues 313-560: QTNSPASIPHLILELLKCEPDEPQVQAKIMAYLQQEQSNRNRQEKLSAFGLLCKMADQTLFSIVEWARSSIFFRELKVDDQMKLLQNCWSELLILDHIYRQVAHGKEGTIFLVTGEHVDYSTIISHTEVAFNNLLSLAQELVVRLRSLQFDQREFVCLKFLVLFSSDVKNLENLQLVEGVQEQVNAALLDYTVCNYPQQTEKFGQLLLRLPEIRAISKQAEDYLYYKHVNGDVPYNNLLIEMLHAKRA

Assays:
[1] = target: mouse SF-1 LBD A270W, 6xHis fusion protein (mouse) (UniProt P33242); assay: AlphaScreen, TIF2 motif, with 1.25 uM 12PE
[2] = target: mouse SF-1 LBD L348W, 6xHis fusion protein (mouse) (UniProt P33242); assay: AlphaScreen, TIF2 motif, with 1.25 uM 12PE
[3] = target: purified mouse LRH-1 (mouse) (UniProt P45448); assay: AlphaScreen, purified mouse LRH-1 and TIF2 motif, with or without 1.25 uM phospholipids

Measured: binding

QEPVSPKKKENALLRYLLDKDDTKD (N-terminal biotinylation) [TIF2-3 peptide (third LxxLL motif from the co-activator TIF2), N-terminally biotinylated]
binds: all assays above
